Measurements taken from patent US20210379147A1, “METHOD AND SYSTEM FOR TREATING CANCER UTILIZING TINAGL1” (The Trustees of Princeton University, priority 2018, published 2021).
Results are given in words; binding and its absence hold for the method and conditions named. For some assays here: Binding seen in cells or lysates may run through a third protein. Some entries that bind do so weakly or less than the wild type. Where a sequence is shown, tags or fusion partners need not be part of it.

By UniProt entry, the sequences of proteins in these tests, tags left out. Residues count along the entry.
UniProt P06756, residues 31-1048: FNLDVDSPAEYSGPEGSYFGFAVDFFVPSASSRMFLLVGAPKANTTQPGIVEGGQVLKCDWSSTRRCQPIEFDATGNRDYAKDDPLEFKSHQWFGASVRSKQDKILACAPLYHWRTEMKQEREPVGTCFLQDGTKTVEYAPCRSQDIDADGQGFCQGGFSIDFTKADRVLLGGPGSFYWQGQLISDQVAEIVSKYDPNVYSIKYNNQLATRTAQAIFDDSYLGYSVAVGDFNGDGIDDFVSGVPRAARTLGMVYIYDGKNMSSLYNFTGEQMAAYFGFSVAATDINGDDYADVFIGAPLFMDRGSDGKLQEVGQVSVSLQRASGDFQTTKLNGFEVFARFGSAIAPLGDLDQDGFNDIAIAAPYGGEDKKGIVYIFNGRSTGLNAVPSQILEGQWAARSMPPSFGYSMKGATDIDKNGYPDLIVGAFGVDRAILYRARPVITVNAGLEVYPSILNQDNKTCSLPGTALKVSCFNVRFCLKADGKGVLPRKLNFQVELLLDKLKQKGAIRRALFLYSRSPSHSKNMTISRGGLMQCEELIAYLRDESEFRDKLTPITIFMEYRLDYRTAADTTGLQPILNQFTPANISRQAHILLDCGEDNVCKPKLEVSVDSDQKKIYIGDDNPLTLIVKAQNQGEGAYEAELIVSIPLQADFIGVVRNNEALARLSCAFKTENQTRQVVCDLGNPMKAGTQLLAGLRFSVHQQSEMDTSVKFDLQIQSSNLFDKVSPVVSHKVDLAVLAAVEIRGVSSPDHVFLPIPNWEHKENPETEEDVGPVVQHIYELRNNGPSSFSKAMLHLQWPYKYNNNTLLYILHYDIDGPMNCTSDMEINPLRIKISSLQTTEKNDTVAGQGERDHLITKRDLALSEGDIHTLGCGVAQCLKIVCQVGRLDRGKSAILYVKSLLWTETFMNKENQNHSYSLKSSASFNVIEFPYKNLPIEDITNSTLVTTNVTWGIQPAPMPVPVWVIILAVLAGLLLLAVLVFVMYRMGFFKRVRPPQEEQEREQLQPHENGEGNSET

What was measured:
[1] = target: recombinant His-tagged EGFR protein (EGFR extracellular domain recombinant protein, Novoprotein CI61) (UniProt P00533); experiment: anti-His IP of 5 µg each of purified recombinant proteins in PBS, WB
[2] = target: integrin αv subunit (human) (UniProt P06756); experiment: anti-HA co-IP from LM2 cells expressing Tinagl1-HA, WB

Row | binding [1] | binding [2] | Binder
1 | binds |  | full length recombinant human Tinagl1 with 6xHis tag at the C-terminus (r-Tinagl1) (protein) AQQGRGRRELAPGLHLRGIRDAGGRYCQEQDLCCRGRADDCALPYLGAICYCDLFCNRTVSDCCPDFWDFCLGVPPPFPPIQGCMHGGRIYPVLGTYWDNCNRCTCQENRQWQCDQEPCLVDPDMIKAINQGNYGWQAGNHSAFWGMTLDEGIRYRLGTIRPSSSVMNMHEIYTVLNPGEVLPTAFEASEKWPNLIHEPLDQGNCAGSWAFSTAAVASDRVSIHSLGHMTPVLSPQNLLSCDTHQQQGCRGGRLDGAWWFLRRRGVVSDHCYPFSGRERDEAGPAPPCMMHSRAMGRGKRQATAHCPNSYVNNNDIYQVTPVYRLGSNDKEIMKELMENGPVQALMEVHEDFFLYKGGIYSHTPVSLGRPERYRRHGTHSVKITGWGEETLPDGRTLKYWTAANSWGPAWGERGHFRIVRGVNECDIESFVLGVWGRVGMEDMGHHVDHHHHHH
2 |  | binds | C-terminal HA tagged Tinagl1 (Tinagl1-HA) (protein, not shown: small tags and cut ends) AQQGRGRRELAPGLHLRGIRDAGGRYCQEQDLCCRGRADDCALPYLGAICYCDLFCNRTVSDCCPDFWDFCLGVPPPFPPIQGCMHGGRIYPVLGTYWDNCNRCTCQENRQWQCDQEPCLVDPDMIKAINQGNYGWQAGNHSAFWGMTLDEGIRYRLGTIRPSSSVMNMHEIYTVLNPGEVLPTAFEASEKWPNLIHEPLDQGNCAGSWAFSTAAVASDRVSIHSLGHMTPVLSPQNLLSCDTHQQQGCRGGRLDGAWWFLRRRGVVSDHCYPFSGRERDEAGPAPPCMMHSRAMGRGKRQATAHCPNSYVNNNDIYQVTPVYRLGSNDKEIMKELMENGPVQALMEVHEDFFLYKGGIYSHTPVSLGRPERYRRHGTHSVKITGWGEETLPDGRTLKYWTAANSWGPAWGERGHFRIVRGVNECDIESFVLGVWGRVGMEDMGHH
